These are yes or no findings as the source states them, for the method shown. In cells and extracts the contact can be indirect. These calls come from enrichment with a bait or labelling near it, and not all partners need be listed. For some of these results: Tags and fused reporters may be left off the sequences shown.
T1: Flag PP4C (UniProt P60510)
T1 sequence: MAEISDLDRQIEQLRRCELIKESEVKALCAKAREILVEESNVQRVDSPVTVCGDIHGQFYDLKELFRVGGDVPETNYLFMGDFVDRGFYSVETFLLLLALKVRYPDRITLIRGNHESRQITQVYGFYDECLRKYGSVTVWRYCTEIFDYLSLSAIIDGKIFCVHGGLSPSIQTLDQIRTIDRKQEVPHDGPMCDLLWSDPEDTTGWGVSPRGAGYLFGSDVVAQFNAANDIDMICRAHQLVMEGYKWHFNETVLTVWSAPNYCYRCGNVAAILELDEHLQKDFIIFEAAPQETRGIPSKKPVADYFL

The chains behind the UniProt entries cited, without tags or fusion partners.
UniProt Q6P3S6: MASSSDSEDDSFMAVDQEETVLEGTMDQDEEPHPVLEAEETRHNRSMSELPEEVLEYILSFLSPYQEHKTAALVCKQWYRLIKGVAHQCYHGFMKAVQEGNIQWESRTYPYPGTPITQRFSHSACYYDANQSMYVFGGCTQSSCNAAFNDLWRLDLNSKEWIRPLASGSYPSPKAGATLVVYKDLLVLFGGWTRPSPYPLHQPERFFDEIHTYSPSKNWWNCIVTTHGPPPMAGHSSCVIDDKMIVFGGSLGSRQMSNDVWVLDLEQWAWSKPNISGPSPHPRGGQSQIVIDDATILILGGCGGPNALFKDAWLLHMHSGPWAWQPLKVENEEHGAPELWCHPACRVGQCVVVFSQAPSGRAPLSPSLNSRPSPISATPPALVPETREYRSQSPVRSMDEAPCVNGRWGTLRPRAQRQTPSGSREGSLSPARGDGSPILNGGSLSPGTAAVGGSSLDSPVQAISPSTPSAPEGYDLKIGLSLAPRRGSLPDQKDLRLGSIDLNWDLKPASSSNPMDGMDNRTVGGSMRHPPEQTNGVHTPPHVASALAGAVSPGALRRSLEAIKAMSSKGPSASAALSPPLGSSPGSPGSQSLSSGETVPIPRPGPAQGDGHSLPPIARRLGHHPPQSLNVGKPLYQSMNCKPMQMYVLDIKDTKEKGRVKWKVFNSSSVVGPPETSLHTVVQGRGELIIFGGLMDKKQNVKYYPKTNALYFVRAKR


Experiments:
Flag PP4C = biological target: T1, Flag PP4C; assay: affinity purification with mass spectrometry
[1] = biological target: FBXO42 (bait of the IP-MS experiment) (UniProt Q6P3S6); assay: affinity purification with mass spectrometry

Row | Binder | binding (Flag PP4C) | binding [1]
1 | PP4R2 (protein, UniProt Q9NY27 1-417) MDVERLQEALKDFEKRGKKEVCPVLDQFLCHVAKTGETMIQWSQFKGYFIFKLEKVMDDFRTSAPEPRGPPNPNVEYIPFDEMKERILKIVTGFNGIPFTIQRLCELLTDPRRNYTGTDKFLRGVEKNVMVVSCVYPSSEKNNSNSLNRMNGVMFPGNSPSYTERSNINGPGTPRPLNRPKVSLSAPMTTNGLPESTDSKEANLQQNEEKNHSDSSTSESEVSSVSPLKNKHPDEDAVEAEGHEVKRLRFDKEGEVRETASQTTSSEISSVMVGETEASSSSQDKDKDSRCTRQHCTEEDEEEDEEEEEESFMTSREMIPERKNQEKESDDALTVNEETSEENNQMEESDVSQAEKDLLHSEGSENEGPVSSSSSDCRETEELVGSNSSKTGEILSESSMENDDEATEVTDEPMEQD | binds | binds
2 | PP4R3A (SMEK1) (protein, UniProt Q6IN85 1-833) MTDTRRRVKVYTLNEDRQWDDRGTGHVSSGYVERLKGMSLLVRAESDGSLLLESKINPNTAYQKQQDTLIVWSEAENYDLALSFQEKAGCDEIWEKICQVQGKDPSVDITQDLVDESEEERFDDMSSPGLELPSCELSRLEEIAELVASSLPSPLRREKLALALENEGYIKKLLELFHVCEDLENIEGLHHLYEIIKGIFLLNRTALFEVMFSEECIMDVIGCLEYDPALSQPRKHREFLTKTAKFKEVIPISDPELKQKIHQTYRVQYIQDMVLPTPSVFEENMLSTLHSFIFFNKVEIVGMLQEDEKFLTDLFAQLTDEATDEEKRQELVNFLKEFCAFSQTLQPQNRDAFFKTLSNMGILPALEVILGMDDTQVRSAATDIFSYLVEYNPSMVREFVMQEAQQNDDVSKKLTEQKITSKDILLINLIIEHMICDTDPELGGAVQLMGLLRTLVDPENMLATANKTEKTEFLGFFYKHCMHVLTAPLLANTTEDKPSKDDFQTAQLLALVLELLTFCVEHHTYHIKNYIINKDILRRVLVLMASKHAFLALCALRFKRKIIGLKDEFYNRYIMKSFLFEPVVKAFLNNGSRYNLMNSAIIEMFEFIRVEDIKSLTAHVIENYWKALEDVDYVQTFKGLKLRFEQQRERQDNPKLDSMRSILRNHRYRRDARTLEDEEEMWFNTDEDDMEDGEAVVSPSDKTKNDDDIMDPISKFMERKKLKESEEKEVLLKTNLSGRQSPSFKLSLSSGTKTNLTSQSSTTNLPGSPGSPGSPGSPGSPGSVPKNTSQTAAITTKGGLVGLVDYPDDDEDDDEDEDKEDTLPLSKKAKFDS | – | binds
3 | PP4C (the catalytic subunit of protein phosphatase 4) (protein, UniProt P60510 1-307) MAEISDLDRQIEQLRRCELIKESEVKALCAKAREILVEESNVQRVDSPVTVCGDIHGQFYDLKELFRVGGDVPETNYLFMGDFVDRGFYSVETFLLLLALKVRYPDRITLIRGNHESRQITQVYGFYDECLRKYGSVTVWRYCTEIFDYLSLSAIIDGKIFCVHGGLSPSIQTLDQIRTIDRKQEVPHDGPMCDLLWSDPEDTTGWGVSPRGAGYLFGSDVVAQFNAANDIDMICRAHQLVMEGYKWHFNETVLTVWSAPNYCYRCGNVAAILELDEHLQKDFIIFEAAPQETRGIPSKKPVADYFL | – | binds

Continued, values first:

Row | binding (Flag PP4C) | binding [1] | Binder
4 | – | binds | CCDC6 (protein, UniProt Q16204 1-474) MADSASESDTDGAGGNSSSSAAMQSSCSSTSGGGGGGGGGGGGGKSGGIVISPFRLEELTNRLASLQQENKVLKIELETYKLKCKALQEENRDLRKASVTIQARAEQEEEFISNTLFKKIQALQKEKETLAVNYEKEEEFLTNELSRKLMQLQHEKAELEQHLEQEQEFQVNKLMKKIKKLENDTISKQLTLEQLRREKIDLENTLEQEQEALVNRLWKRMDKLEAEKRILQEKLDQPVSAPPSPRDISMEIDSPENMMRHIRFLKNEVERLKKQLRAAQLQHSEKMAQYLEEERHMREENLRLQRKLQREMERREALCRQLSESESSLEMDDERYFNEMSAQGLRPRTVSSPIPYTPSPSSSRPISPGLSYASHTVGFTPPTSLTRAGMSYYNSPGLHVQHMGTSHGITRPSPRRSNSPDKFKRPTPPPSPNTQTPVQPPPPPPPPPMQPTVPSAATSQPTPSQHSAHPSSQP
5 | binds | binds | PP4R1 (protein, UniProt Q8TF05 1-950) MADLSLLQEDLQEDADGFGVDDYSSESDVIIIPSALDFVSQDEMLTPLGRLDKYAASENIFNRQMVARSLLDTLREVCDDERDCIAVLERISRLADDSEPTVRAELMEQVPHIALFCQENRPSIPYAFSKFLLPIVVRYLADQNNQVRKTSQAALLALLEQELIERFDVETKVCPVLIELTAPDSNDDVKTEAVAIMCKMAPMVGKDITERLILPRFCEMCCDCRMFHVRKVCAANFGDICSVVGQQATEEMLLPRFFQLCSDNVWGVRKACAECFMAVSCATCQEIRRTKLSALFINLISDPSRWVRQAAFQSLGPFISTFANPSSSGQYFKEESKSSEEMSVENKNRTRDQEAPEDVQVRPEDTPSDLSVSNSSVILENTMEDHAAEASGKPLGEISVPLDSSLLCTLSSESHQEAASNENDKKPGNYKSMLRPEVGTTSQDSALLDQELYNSFHFWRTPLPEIDLDIELEQNSGGKPSPEGPEEESEGPVPSSPNITMATRKELEEMIENLEPHIDDPDVKAQVEVLSAALRASSLDAHEETISIEKRSDLQDELDINELPNCKINQEDSVPLISDAVENMDSTLHYIHSDSDLSNNSSFSPDEERRTKVQDVVPQALLDQYLSMTDPSRAQTVDTEIAKHCAYSLPGVALTLGRQNWHCLRETYETLASDMQWKVRRTLAFSIHELAVILGDQLTAADLVPIFNGFLKDLDEVRIGVLKHLHDFLKLLHIDKRREYLYQLQEFLVTDNSRNWRFRAELAEQLILLLELYSPRDVYDYLRPIALNLCADKVSSVRWISYKLVSEMVKKLHAATPPTFGVDLINELVENFGRCPKWSGRQAFVFVCQTVIEDDCLPMDQFAVHLMPHLLTLANDRVPNVRVLLAKTLRQTLLEKDYFLASASCHQEAVEQTIMALQMDRDSDVKYFASIHPASTKISEDAMSTASSTY

From paper doi:10.1101/2025.05.02.651838
